PubChem BioAssay AID504786 – Drosophila RNAi Screening Center | 2011

Test: 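Positive regulators of HIF-driven reporter output in Drosophila cells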 (primary screen)
System: Drosophila S2 cells with a stable HIF luciferase reporter
Reagent: long dsRNA against Drosophila genes, about 0.2 µg dsRNA per well of a 384-well plate
Time to read-out: three days of knock-down, then 20 h of DFO before reading
Conditions: desferrioxamine (DFO) at 100 µM, an iron chelator that mimics hypoxia, for 20 h
Measurement: 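HIF reporter luminescence in cells given 100 µM DFO for 20 h, using the mouse ldh-a hypoxia-response element, scored as per-plate z-scores; higher means greater loss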
Reading the numbers: z-score: higher = stronger loss of HIF reporter signal
The screen tested about 21,000 reagents; this is an unselected part of those with a known target gene and a result. 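Primary screen; positive scores mean lost reporter signal, so the sign may be inverted from the usual convention.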 The numbers tell different reagents against one gene apart. Further read-outs or replicates are left out here. Reagent sequences are not shown.

Tsp #1 | z-score, replicate 1 = -0.3
Tsp #2 | z-score, replicate 1 = -0.4
tyn | z-score, replicate 1 = -0.4
Efr | z-score, replicate 1 = -0.2
ash2 | z-score, replicate 1 = -0.3
CG10352 | z-score, replicate 1 = -0.2
pen-2 | z-score, replicate 1 = 0.1
CG17108 | z-score, replicate 1 = -0.4
CG31326 | z-score, replicate 1 = -0.2
CG7484 | z-score, replicate 1 = 0.2
Tom40 | z-score, replicate 1 = 0.9
Cog1 | z-score, replicate 1 = -0.2
fd96Ca | z-score, replicate 1 = -0.1

2 entries from above, reformatted:
gene knocked down	reagent no.	z-score, replicate 1
Tsp	2	-0.4
tyn	1	-0.4

Continued:
Pgant6 | z-score, replicate 1 = 2.7
qm | z-score, replicate 1 = 0
Lim1 #1 | z-score, replicate 1 = -0.3
Lim1 #2 | z-score, replicate 1 = -0.2
crok | z-score, replicate 1 = -0.3
CG6761 | z-score, replicate 1 = 0
ana | z-score, replicate 1 = -0.3
ais | z-score, replicate 1 = -0.2
dor | z-score, replicate 1 = -0.2
CkIIalpha-i3 | z-score, replicate 1 = -0.1
ref(2)P | z-score, replicate 1 = -0.2
Lsd-2 | z-score, replicate 1 = -0.3
CG17560 | z-score, replicate 1 = 0
Fatp2 #1 | z-score, replicate 1 = 0
Fatp2 #2 | z-score, replicate 1 = -0.3
Fatp2 #3 | z-score, replicate 1 = -0.4
